Test results reported in paper PMC8847397.
Numbering of substitutions follows the chain as printed. In names and notes the source's numbering stands. Results are given in words; binding and its absence hold for the method and conditions named. In cells and extracts the contact can be indirect. Some results given as binding are weak or reduced against the parent protein; the word gives no strength. For some assays here: Tags and fused reporters may be left off the sequences shown.

Chains of the proteins cited; added tags and fusions are not shown. Residues count along the entry.
UniProt P55854, residues 1-92: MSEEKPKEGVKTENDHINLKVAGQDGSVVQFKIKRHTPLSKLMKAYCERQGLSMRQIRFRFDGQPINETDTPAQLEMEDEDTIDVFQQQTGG

B1: SENP1 WT (in lysate of transfected HEK293T cells, GST pull-down) (enzyme, UniProt Q9P0U3-1 1-644)
chain: MDDIADRMRMDAGEVTLVNHNSVFKTHLLPQTGFPEDQLSLSDQQILSSRQGHLDRSFTCSTRSAAYNPSYYSDNPSSDSFLGSGDLRTFGQSANGQWRNSTPSSSSSLQKSRNSRSLYLETRKTSSGLSNSFAGKSNHHCHVSAYEKSFPIKPVPSPSWSGSCRRSLLSPKKTQRRHVSTAEETVQEEEREIYRQLLQMVTGKQFTIAKPTTHFPLHLSRCLSSSKNTLKDSLFKNGNSCASQIIGSDTSSSGSASILTNQEQLSHSVYSLSSYTPDVAFGSKDSGTLHHPHHHHSVPHQPDNLAASNTQSEGSDSVILLKVKDSQTPTPSSTFFQAELWIKELTSVYDSRARERLRQIEEQKALALQLQNQRLQEREHSVHDSVELHLRVPLEKEIPVTVVQETQKKGHKLTDSEDEFPEITEEMEKEIKNVFRNGNQDEVLSEAFRLTITRKDIQTLNHLNWLNDEIINFYMNMLMERSKEKGLPSVHAFNTFFFTKLKTAGYQAVKRWTKKVDVFSVDILLVPIHLGVHWCLAVVDFRKKNITYYDSMGGINNEACRILLQYLKQESIDKKRKEFDTNGWQLFSKKSQEIPQQMNGSDCGMFACKYADCITKDRPINFTQQHMPYFRKRMVWEILHRKLL
B2: SENP1 Y270F (in lysate of transfected HEK293T cells, GST pull-down) (enzyme, UniProt Q9P0U3-1 1-644)
chain: B1 chain with Y270F
B3: SENP1 Y270E (in lysate of transfected HEK293T cells, GST pull-down) (enzyme, UniProt Q9P0U3-1 1-644)
chain: B1 chain with Y270E

Experiments:
[1] = target: T1, c-Myc-SENP1 (human) (UniProt Q9P0U3); assay: co-IP; HEK293T cells transfected with c-Myc-SENP1 and HA-Lck; lysis in 1% Nonidet P40, 150 mM NaCl, 20 mM Tris-HCl pH 7.5, 5 mM EDTA; protein G Sepharose, 4°C
T1 sequence: B1 chain

[2] = target: T2, endogenous SENP1 (SUMO-specific protease 1) in Jurkat E6.1 T cells (human (endogenous in Jurkat E6.1)) (UniProt Q9P0U3); assay: co-IP; endogenous proteins of Jurkat E6.1 T cells; lysis in 1% Nonidet P40, 150 mM NaCl, 20 mM Tris-HCl pH 7.5, 5 mM EDTA; protein G Sepharose, 4°C
T2 sequence: B1 chain

[3] = target: GST-SUMO3 (1-92 aa) (human) (UniProt P55854); assay: pull-down; purified GST-SUMO1 (1-97 aa) or GST-SUMO3 (1-92 aa) immobilised on glutathione beads, incubated at 4°C overnight with lysates of transfected HEK293T cells; western blot; only the target purified

Molecule	binding [3]	also measured
HA-Lck (from UniProt P06239-1 1-509) (enzyme)		binding [1]: binds
endogenous Lck in Jurkat E6.1 T cells (from UniProt P06239-1 1-509) (enzyme)		binding [2]: binds
B1	binds	
B2	binds	
B3	binds	
